# Cell number after 72 h of treatment

Values as published with doi:10.1371/journal.pone.0140310, rounded.

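Human melanoma cells were exposed to a pair of drugs for 72 h in 1,536-well plates and read by automated microscopy after fixing and staining. Values are the number of DAPI-stained nuclei as a percentage of the DMSO control: 100 is no effect, lower means fewer cells. Every drug was used at one fixed concentration, the lower of two screened (a fifth of the higher). These are primary screening values without error estimates.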
An unselected part of the screen is shown.

First drug in all entries: IMD-0354, 0.016 µM, O=C(Nc1cc(C(F)(F)F)cc(C(F)(F)F)c1)c1cc(Cl)ccc1O

CC(=O)O[C@@]12CO[C@@H]1C[C@H](O)[C@@]1(C)C(=O)[C@H](O)C3=C(C)[C@@H](OC(=O)[C@H](O)[C@@H](NC(=O)OC(C)(C)C)c4ccccc4)C[C@@](O)([C@@H](OC(=O)c4ccccc4)[C@H]21)C3(C)C at 0.0001 µM gave IST-MEL1: 58.3; COLO 829: 51.9; MEL-HO: 66.5; G-361: 22.6; COLO 800: 53.0; COLO 792: 41.4; LOX IMVI: 53.8; A101D: 83.6. With CCCS(=O)(=O)Nc1ccc(F)c(C(=O)c2c[nH]c3ncc(Cl)cc23)c1F at 0.08 µM the screen read IST-MEL1: 101; COLO 829: 125; MEL-HO: 99.0; G-361: 94.7; COLO 800: 135; COLO 792: 99.8; LOX IMVI: 84.1; A101D: 89.7. CO[C@H]1C[C@@H]2CC[C@@H](C)[C@@](O)(O2)C(=O)C(=O)N2CCCC[C@H]2C(=O)O[C@H]([C@H](C)C[C@@H]2CC[C@@H](OCCO)[C@H](OC)C2)CC(=O)[C@H](C)/C=C(\C)[C@@H](O)[C@@H](OC)C(=O)[C@H](C)C[C@H](C)/C=C/C=C/C=C/1C at 0.02 µM gave IST-MEL1: 74.5; COLO 829: 72.1; MEL-HO: 71.7; G-361: 77.5; COLO 800: 59.1; COLO 792: 52.3; LOX IMVI: 87.9; A101D: 73.6. With Cc1cc(SCc2sc(-c3ccc(C(F)(F)F)c(F)c3)nc2C)ccc1OCC(=O)O at 2 µM the screen read IST-MEL1: 101; COLO 829: 99.0; MEL-HO: 103; G-361: 96.1; COLO 800: 122; COLO 792: 95.7; LOX IMVI: 81.7; A101D: 101. NC(=O)c1ccc(N(C(N)=O)c2c(F)cccc2F)nc1-c1ccc(F)cc1F at 0.4 µM gave IST-MEL1: 99.7; COLO 829: 104; MEL-HO: 96.5; G-361: 94.2; COLO 800: 140; COLO 792: 99.2; LOX IMVI: 56.3; A101D: 107.

For O=C(O)c1ccc2c(c1)nc(Nc1cccc(Cl)c1)c1ccncc12 at 0.4 µM the values were IST-MEL1: 116; COLO 829: 103; MEL-HO: 91.6; G-361: 85.4; COLO 800: 113; COLO 792: 105; LOX IMVI: 84.7; A101D: 114. For O=C(/C=C/c1cccnc1)NCCCCC1CCN(C(=O)c2ccccc2)CC1 at 0.01 µM the values were IST-MEL1: 81.2; COLO 829: 95.9; MEL-HO: 49.6; G-361: 33.1; COLO 800: 27.9; COLO 792: 61.3; LOX IMVI: 83.9; A101D: 91.3. Results for Nc1ccn([C@@H]2O[C@H](CO)[C@@H](O)C2(F)F)c(=O)n1 at 0.0004 µM are IST-MEL1: 82.3; COLO 829: 81.1; MEL-HO: 93.8; G-361: 102; COLO 800: 103; COLO 792: 99.7; LOX IMVI: 86.4; A101D: 96.3. For CC(C)C[C@H](NC(=O)[C@H](Cc1ccccc1)NC(=O)c1cnccn1)B(O)O at 0.001 µM the values were IST-MEL1: 98.2; COLO 829: 80.2; MEL-HO: 94.8; G-361: 47.3; COLO 800: 143; COLO 792: 90.1; LOX IMVI: 70.3; A101D: 56.5. CCCCCCCCc1ccc(CCC(N)(CO)CO)cc1 at 2 µM gave IST-MEL1: 100; COLO 829: 69.9; MEL-HO: 92.8; G-361: 106; COLO 800: 96.7; COLO 792: 110; LOX IMVI: 123; A101D: 106.

For C[C@]1(c2nc3c(C(N)=O)cccc3[nH]2)CCCN1 at 1.4 µM the values were IST-MEL1: 94.0; COLO 829: 70.8; MEL-HO: 96.0; G-361: 84.7; COLO 800: 81.2; COLO 792: 116; LOX IMVI: 96.3; A101D: 87.0. For CC[C@]1(O)C[C@H]2CN(CCc3c([nH]c4ccccc34)[C@@](C(=O)OC)(c3cc4c(cc3OC)N(C=O)[C@H]3[C@@](O)(C(=O)OC)[C@H](OC(C)=O)[C@]5(CC)C=CCN6CC[C@]43[C@@H]65)C2)C1 at 0.0001 µM the values were IST-MEL1: 91.6; COLO 829: 75.0; MEL-HO: 106; G-361: 101; COLO 800: 87.7; COLO 792: 99.6; LOX IMVI: 68.4; A101D: 57.6. CCN(CC)CCNC(=O)c1c(C)[nH]c(/C=C2\C(=O)Nc3ccc(F)cc32)c1C at 0.4 µM gave IST-MEL1: 103; COLO 829: 129; MEL-HO: 105; G-361: 109; COLO 800: 68.7; COLO 792: 98.8; LOX IMVI: 171; A101D: 104. With C=CCNC1=C2C[C@@H](C)C[C@H](OC)[C@H](O)[C@@H](C)/C=C(\C)[C@H](OC(N)=O)[C@@H](OC)/C=C\C=C(/C)C(=O)NC(=CC1=O)C2=O at 0.002 µM the screen read IST-MEL1: 96.2; COLO 829: 76.0; MEL-HO: 105; G-361: 83.3; COLO 800: 97.9; COLO 792: 99.3; LOX IMVI: 79.1; A101D: 122.

The first 2 entries again:

{"second drug": "CC(=O)O[C@@]12CO[C@@H]1C[C@H](O)[C@@]1(C)C(=O)[C@H](O)C3=C(C)[C@@H](OC(=O)[C@H](O)[C@@H](NC(=O)OC(C)(C)C)c4ccccc4)C[C@@](O)([C@@H](OC(=O)c4ccccc4)[C@H]21)C3(C)C at 0.0001 µM", "IST-MEL1": 58.3, "COLO 829": 51.9, "MEL-HO": 66.5, "G-361": 22.6, "COLO 800": 53.0, "COLO 792": 41.4, "LOX IMVI": 53.8, "A101D": 83.6}
{"second drug": "CCCS(=O)(=O)Nc1ccc(F)c(C(=O)c2c[nH]c3ncc(Cl)cc23)c1F at 0.08 µM", "IST-MEL1": 101, "COLO 829": 125, "MEL-HO": 99.0, "G-361": 94.7, "COLO 800": 135, "COLO 792": 99.8, "LOX IMVI": 84.1, "A101D": 89.7}